PubChem BioAssay AID1259424 – University of Nebraska Medical Center – 2018
In all, the deposit lists about 14,000 reagents; shown is an unselected part. 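Higher correlation or smaller distance means closer resemblance to KSR1 loss; control wells, including KSR1 knockdowns, recur on many plates.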 Not all columns of the deposit are shown. Not stated in the record: the time to read-out.

Assay: 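Seek colon cancer survival genes behaving like KSR1, using a six-gene signature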 (primary screen)
Cells: human HCT116 colon cancer cells
Reagents: siRNA pool against human genes, 50 nM
Read-out: 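Log2 levels of six mRNAs (branched-DNA multiplex), adjusted by two reference genes and the non-targeting median, then scored against the average KSR1 knockdown pattern as Pearson r and euclidean distance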
Scale: mean correlation with KSR1 profile and KSR1 correlation: higher = expression change more like KSR1 knockdown; mean distance from KSR1 profile: higher = expression change less like KSR1 knockdown

no.	Target gene	mean correlation with KSR1 profile	mean distance from KSR1 profile	KSR1 correlation, replicate 1	KSR1 correlation, replicate 2
1	KLHL27 (kelch like family member 27)	-0.0718	1.17	-0.28	0.374
2	GP6 (glycoprotein VI platelet)	0.28	1.51	0.323	0.233
3	PIGQ (phosphatidylinositol glycan anchor biosynthesis class Q)	-0.138	1.03	0.171	-0.179
4	AGBL4 (AGBL carboxypeptidase 4)	0.51	1.91	0.526	0.444
5	LAG3 (lymphocyte activating 3)	0.157	2.6	0.433	-0.0629
6	RHOB (ras homolog family member B)	0.544	1.12	0.734	0.256
7	OMP (olfactory marker protein)	-0.142	3.9	0.0263	-0.0607
8	LAMTOR3 (late endosomal/lysosomal adaptor, MAPK and MTOR activator 3)	-0.758	2.64	-0.733	-0.703
9	DLG1 (discs large MAGUK scaffold protein 1)	0.0619	2.37	0.207	-0.0662
10	LPP	-0.0307	1.94	0.105	-0.346
11	RALGDS (ral guanine nucleotide dissociation stimulator)	-0.528	2.32	-0.543	-0.311
12	PCDH18 (protocadherin 18)	0.271	2.17	0.0829	0.341
13	GHITM (growth hormone inducible transmembrane protein)	0.298	2.25	0.184	-0.0237
14	GREB1L (GREB1 like retinoic acid receptor coactivator)	0.656	1.24	0.655	0.513
15	GPT (glutamic--pyruvic transaminase)	0.165	1.51	-0.0486	0.0678
16	TRPC3	-0.72	2	-0.721	-0.565
17	MARCHF2 (membrane associated ring-CH-type finger 2)	-0.289	3.18	-0.604	0.115
18	ARHGAP25 (Rho GTPase activating protein 25)	-0.2	2.5	0.0222	-0.211
19	ACOX2 (acyl-CoA oxidase 2)	-0.182	4.82	0.0708	-0.292
20	SLC61A1	0.74	1.95	0.773	0.638

Looked up above.
Entry of LAG3 (lymphocyte activating 3) in “mean distance from KSR1 profile”: 2.6
RALGDS (ral guanine nucleotide dissociation stimulator), mean correlation with KSR1 profile: -0.528
